In publication doi:10.1101/630897 one finds binding data, which are given here for one substance.

Amino acid sequences for entries named in this document (tags omitted). A change or cut given only in a name is not applied to a line headed by its entry. Residues count along the entry.
UniProt Q9WTL8: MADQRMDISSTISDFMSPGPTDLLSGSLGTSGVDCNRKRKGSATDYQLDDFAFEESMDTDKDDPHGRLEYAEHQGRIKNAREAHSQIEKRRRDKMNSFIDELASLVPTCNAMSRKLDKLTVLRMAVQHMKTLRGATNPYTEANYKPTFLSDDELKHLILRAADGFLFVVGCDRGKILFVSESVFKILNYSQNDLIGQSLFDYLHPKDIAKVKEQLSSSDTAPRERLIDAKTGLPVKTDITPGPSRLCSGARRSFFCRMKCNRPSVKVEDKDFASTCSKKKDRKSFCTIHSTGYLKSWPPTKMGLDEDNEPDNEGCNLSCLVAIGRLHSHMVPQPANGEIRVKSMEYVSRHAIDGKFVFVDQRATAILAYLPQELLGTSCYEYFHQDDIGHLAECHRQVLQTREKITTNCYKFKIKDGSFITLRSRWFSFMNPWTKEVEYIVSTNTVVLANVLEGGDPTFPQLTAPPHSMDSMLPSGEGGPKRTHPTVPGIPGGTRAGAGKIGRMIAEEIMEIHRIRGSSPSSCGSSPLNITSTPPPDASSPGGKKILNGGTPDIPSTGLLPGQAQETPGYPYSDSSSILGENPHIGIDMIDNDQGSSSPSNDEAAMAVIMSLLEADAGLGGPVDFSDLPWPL
UniProt A5YKK6, residues 1407-2376: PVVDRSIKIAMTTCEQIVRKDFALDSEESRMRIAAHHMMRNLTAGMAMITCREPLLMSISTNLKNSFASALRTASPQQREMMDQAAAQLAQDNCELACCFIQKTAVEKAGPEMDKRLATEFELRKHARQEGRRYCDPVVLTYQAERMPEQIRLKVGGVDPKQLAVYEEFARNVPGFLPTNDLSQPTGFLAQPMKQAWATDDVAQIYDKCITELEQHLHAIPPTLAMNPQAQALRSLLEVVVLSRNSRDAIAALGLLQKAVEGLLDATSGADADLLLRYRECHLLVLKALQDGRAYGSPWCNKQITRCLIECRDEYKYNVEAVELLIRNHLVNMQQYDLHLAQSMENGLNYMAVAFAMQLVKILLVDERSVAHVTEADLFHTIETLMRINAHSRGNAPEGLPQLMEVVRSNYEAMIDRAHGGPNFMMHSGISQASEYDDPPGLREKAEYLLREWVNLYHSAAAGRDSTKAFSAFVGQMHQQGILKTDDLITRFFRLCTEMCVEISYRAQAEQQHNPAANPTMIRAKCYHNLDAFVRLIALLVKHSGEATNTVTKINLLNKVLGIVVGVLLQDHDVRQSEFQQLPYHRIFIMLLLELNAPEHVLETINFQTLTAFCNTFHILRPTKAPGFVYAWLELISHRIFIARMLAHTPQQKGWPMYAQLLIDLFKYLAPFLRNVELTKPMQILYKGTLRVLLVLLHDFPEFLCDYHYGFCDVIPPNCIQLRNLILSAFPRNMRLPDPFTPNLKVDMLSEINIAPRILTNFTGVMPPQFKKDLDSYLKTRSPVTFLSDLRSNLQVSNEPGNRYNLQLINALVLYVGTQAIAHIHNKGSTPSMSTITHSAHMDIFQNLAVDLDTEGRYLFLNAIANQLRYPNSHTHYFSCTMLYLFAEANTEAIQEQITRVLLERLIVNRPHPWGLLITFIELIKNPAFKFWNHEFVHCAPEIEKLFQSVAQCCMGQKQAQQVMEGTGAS

Results are given in words; binding and its absence hold for the method and conditions named. In cells and extracts the contact can be indirect. Binding calls can cover weak binding; strength is not graded here.

In this assay the target is Flag-tagged BMAL1 (mouse) (UniProt Q9WTL8). As to the kind of experiment: co-IP.

On to “HA-tagged CNOT1-C (amino acids 1407-2376) (from UniProt A5YKK6 1407-2376) (domain or fragment)”, for which the binding entry was “binds”.
